PubChem BioAssay AID1259254 – NCATS – 2017

- Assay: 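Finding genes that stop cells copying their DNA twice in one cycle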 (primary screen)
- Cell system: human HCT116 colorectal cancer cells
- Reagents: single siRNA against human genes
- Timing: 3 days
- Measured: 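Nuclei stained with Hoechst and imaged; cell-cycle phase assigned by DNA content; G2 share scaled per plate, non-targeting siRNA 0%, GMNN siRNA 100%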
- Reading the numbers: G2 robust z-score and G2 cells, % of GMNN control: higher = more G2 cells, more excess DNA replication
- Call rule: 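Active siRNAs have a G2 robust z of 5 or more median absolute deviations over the median, which in these data means about 38% or higher of GMNN control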
This is an unselected part of about 59,000 deposited reagents. About 1,550 of them (2.6%) count as active. 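G2 share is only a proxy for re-replication; each gene was hit by three separate siRNAs, and active genes were retested.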 Unmarked entries are inactive. Reagents against one gene are numbered here. Further read-outs or replicates are left out here. Not stated in the record: the amount of reagent.

After knock-down of SLFN12L (GeneID 100506736) #1 the results were G2 robust z-score -0.877; G2 cells, % of GMNN control -3.2.
For SLFN12L (GeneID 100506736) #2 the deposit lists G2 robust z-score 3.89; G2 cells, % of GMNN control 30.4.
After knock-down of SLFN12L (GeneID 100506736) #3, the record shows G2 robust z-score 0.882; G2 cells, % of GMNN control 9.17.
After knock-down of COPG2 (GeneID 26958) #1, the record shows G2 robust z-score 1.99; G2 cells, % of GMNN control 17.
Knock-down of COPG2 (GeneID 26958) #2 resulted in: G2 robust z-score 2.97; G2 cells, % of GMNN control 23.9.
Against COPG2 (GeneID 26958) #3, the values are G2 robust z-score 0.978; G2 cells, % of GMNN control 9.85.
For FAM187B (GeneID 148109) #1, the entry reads G2 robust z-score 0.0738; G2 cells, % of GMNN control 3.49.
With knock-down of FAM187B (GeneID 148109) #2, the record shows G2 robust z-score 0.416; G2 cells, % of GMNN control 5.9.
With knock-down of FAM187B (GeneID 148109) #3 the results were G2 robust z-score -0.0256; G2 cells, % of GMNN control 2.79.
Against FHL5 (GeneID 9457) #1, the values are G2 robust z-score -0.477; G2 cells, % of GMNN control -0.385.
With knock-down of FHL5 (GeneID 9457) #2, the record shows G2 robust z-score 1.01; G2 cells, % of GMNN control 10.
FHL5 (GeneID 9457) #3 gave G2 robust z-score -0.122; G2 cells, % of GMNN control 2.11.
With knock-down of HIGD2A (GeneID 192286) #1 the results were G2 robust z-score -0.295; G2 cells, % of GMNN control 0.893.
Depletion of HIGD2A (GeneID 192286) #2 came out at: G2 robust z-score 0.621; G2 cells, % of GMNN control 7.34.
Knock-down of HIGD2A (GeneID 192286) #3 came out at: G2 robust z-score -0.617; G2 cells, % of GMNN control -1.37.
After knock-down of SIAH1 (GeneID 6477) #1 the results were G2 robust z-score 0.447; G2 cells, % of GMNN control 6.11.
After knock-down of SIAH1 (GeneID 6477) #2 the results were G2 robust z-score 3.94; G2 cells, % of GMNN control 30.7.
Silencing of SIAH1 (GeneID 6477) #3 resulted in: G2 robust z-score -0.739; G2 cells, % of GMNN control -2.23.
TREML2 (GeneID 79865) #1 scored G2 robust z-score 2.01; G2 cells, % of GMNN control 17.1.
TREML2 (GeneID 79865) #2 scored G2 robust z-score 0.0374; G2 cells, % of GMNN control 3.23.
Against TREML2 (GeneID 79865) #3, the values are G2 robust z-score -1.32; G2 cells, % of GMNN control -6.34.
Knock-down of CLSTN1 (GeneID 22883) #1 gave: G2 robust z-score 0.942; G2 cells, % of GMNN control 9.59.
Knock-down of CLSTN1 (GeneID 22883) #2 gave: G2 robust z-score 0.0203; G2 cells, % of GMNN control 3.11.
Against CLSTN1 (GeneID 22883) #3 the deposit lists G2 robust z-score -0.227; G2 cells, % of GMNN control 1.37.
PRR23A (GeneID 729627) #1 showed G2 robust z-score 0.346; G2 cells, % of GMNN control 5.4.
PRR23A (GeneID 729627) #2 showed G2 robust z-score 0.287; G2 cells, % of GMNN control 4.99.
For PRR23A (GeneID 729627) #3 the deposit lists G2 robust z-score 0.042; G2 cells, % of GMNN control 3.26.
Silencing of COCH (GeneID 1690) #1 gave: G2 robust z-score 0.771; G2 cells, % of GMNN control 8.39.
Knock-down of COCH (GeneID 1690) #2 came out at: G2 robust z-score 1.39; G2 cells, % of GMNN control 12.8.
Against COCH (GeneID 1690) #3 the deposit lists G2 robust z-score -0.949; G2 cells, % of GMNN control -3.71.

Targets listed so far whose gene name begins with F or f:
FAM187B (GeneID 148109) #1 | G2 robust z-score: 0.0738; G2 cells, % of GMNN control: 3.49
FAM187B (GeneID 148109) #2 | G2 robust z-score: 0.416; G2 cells, % of GMNN control: 5.9
FAM187B (GeneID 148109) #3 | G2 robust z-score: -0.0256; G2 cells, % of GMNN control: 2.79
FHL5 (GeneID 9457) #1 | G2 robust z-score: -0.477; G2 cells, % of GMNN control: -0.385
FHL5 (GeneID 9457) #2 | G2 robust z-score: 1.01; G2 cells, % of GMNN control: 10
FHL5 (GeneID 9457) #3 | G2 robust z-score: -0.122; G2 cells, % of GMNN control: 2.11
